The subject of the series is A549.tTA cells. The series can be described thus: Cell tracker assay (Dil) of GFP fusion peptides. Format: cell-based. To be noted: relative to the other two peptides. On the procedure: A549.tTA cells were infected with tet-regulatable retroviruses expressing GFP fusion peptides, stained with the cell tracker dye, Dil, and incubated at 37° C. for five days. After the incubation, fluorescent intensity of GFP and Dil was analyzed with MoFlo. A growth ratio was obtained as the ratio of mean Dil fluorescent intensity for the GFP positive population relative to that of the GFP negative population.
Effect of GFP fused peptides and their mutants. GFP fused peptides (#40, #41, #88 and their mutants) expressing A549.tTA cells were stained with Dil and fluorescent intensity of GFP and Dil was examined with MoFlo. A growth ratio was obtained as described above. Mutated residues were underlined. Amino acid sequences of #40, #41, and #88 were aligned with leucine-rich motifs of HIV-1 Rev (amino acid position 75 to 84, gi|16118296|gb|AAL12672.1|), HTLV-1 Rex (amino acid position 82 to 93, gi|7963889|gb|AAF71372.1), Mitogen-activated protein kinase kinase 1, MAPKK, (amino acid position 33 to 43, gi|5579478|ref|NP_002746.1|), Human homologue of mouse double minute 2, Hdm-2, (amino acid position 190 to 200, gi|4505137|ref|NP_002383.1|), and Protein kinase inhibitor, PKI (amino acid position 38 to 48, gi|203271|gb|AAA40867.1|).
Effect of GFP fused peptides and their mutants. […]

“RWDPTRLLRFRFLRMLVRRSRPVRP (GFP fusion) [#40, anti-proliferative peptide tested as GFP fusion]”: the “expression level based on GFP FACS analysis” value is listed as 10 -fold lower. Regarding “RLRRICSGILLIRRILGIFVRPVRP (GMDELYKEEAAKARLRRICSGILLIRRILGIFV; N-terminal biotin) [#88, Peptide 35, also called peptide 88; tested as GFP fusion]”, the “expression level based on GFP FACS analysis” value was 10 -fold lower.

The values above are taken from patent US20060216299A1, “Cell cycle targets and peptides” (Rigel Pharmaceuticals, Inc., priority 2002, published 2006).
